PubChem BioAssay AID463183 (Sanford-Burnham Center for Chemical Genomics, 2010)
The list shows a part of the results. These are further read-outs of the screen, such as a control signal, another cell line or another target. No call is given for them. The list favours compounds with an active or inconclusive main result.

Assay: blockers of oleate-driven lipid droplets in liver cells – imaging, AML12 mouse hepatocytes, single concentration, high-content, confirmation (AID 463183);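 also: cells counted after overnight compound exposure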
Details: BODIPY lipid droplet imaging, measured here: cell count, cytotoxicity, at 5.2 µM, droplets induced with 100 µM oleic acid
In the case of NC(=O)N/N=C/c1ccc(-c2ccc([N+](=O)[O-])cc2)o1, the cell count is reported as 1590 cells.
With COCCCn1c(SCC(=O)Nc2ccc(NC(=O)c3ccco3)c(OC)c2)nc2ccccc2c1=O the cell count was 1620 cells.
CCOC(=O)c1ccc(NC(=O)CN(Cc2ccc(Cl)cc2)S(C)(=O)=O)cc1 showed a cell count of 1590 cells.
For COc1ccc2c(c1)c(CC(=O)Nc1ccc(C)cc1)c(C)n2C(=O)c1ccc(Cl)cc1, the cell count was 1590 cells.
For COc1cc(N2CCCC2)c(OC)cc1/C=C(/C#N)c1ccc(F)cc1, the cell count was 1610 cells.
With Cc1ccc(-c2cc(C(=O)NC3=NCCS3)c3cc(Br)ccc3n2)o1 the cell count was 1550 cells.
With CC1(C)OC(c2ccccc2)=C/C(=C/C=C2C(=O)c3ccccc3C2=O)O1 the cell count was 1590 cells.
Compound COc1ccc(N2CCN(C(=O)c3cc(C)on3)CC2)cc1 has a cell count of 1600 cells.
In the case of CC(=O)c1c(C)[nH]c(C(=O)Nc2nc(-c3ccc(-c4ccccc4)cc3)cs2)c1C, the cell count is reported as 1590 cells.
CC(C)Oc1ccccc1/C=N/Nc1ccccc1[N+](=O)[O-] gave a cell count of 1550 cells.
Work on CCCCCCn1c(N2CCN(c3ccccc3)CC2)nc2c1c(=O)[nH]c(=O)n2C yielded a cell count of 1690 cells.
With CC(C)C[C@H]1C(=O)N2CCC[C@H]2[C@]2(O)O[C@](NC(=O)[C@@H]3C=C4c5cccc6[nH]c(Br)c(c56)CC4N(C)C3)(C(C)C)C(=O)N12 (some centres undefined) the cell count was 1530 cells.
CC(C)(C)c1ccc(-c2csc(NNC3=NCCCCC3)n2)cc1 showed a cell count of 1630 cells.
With O=C(NC1CCCc2c1cnn2-c1cc(F)cc(F)c1)c1ccccn1 (centres undefined) the cell count was 1510 cells.
In the case of CCc1nc2ccccc2c(C(=O)OCC(=O)NCc2ccc3c(c2)OCO3)c1C, the cell count is reported as 1570 cells.
In the case of CCc1ccc(NC(=O)CNC(=O)[C@@H]2Cc3ccccc3CN2C(=O)OC(C)(C)C)cc1, the cell count is reported as 1500 cells.
With COc1ccc(/C=C(/NC(=O)c2cccs2)C(=O)Nc2ccc(C)cc2)cc1OC the cell count was 1610 cells.
For CCOC(=O)c1c(C)[nH]c(N=Nc2ccccc2C)c1C, the cell count was 1650 cells.
For CCSC(=O)N(CC)CC(=O)Nc1c(CC)cccc1CC, the cell count was 1670 cells.
CCOc1ccc(CCNC(=O)CCCn2c(=O)c3cccn3c3cccnc32)cc1OCC showed a cell count of 1560 cells.
Work on COc1ccc(NC(=O)c2sccc2C)cn1 yielded a cell count of 1630 cells.
Work on O=C(Nc1ccc([N+](=O)[O-])cn1)c1cc(-c2cccc(Cl)c2)nc2ccccc12 yielded a cell count of 1600 cells.
For COc1ccc(/C=C/C(=O)NCC2COc3ccccc3O2)c(OC)c1 (centres undefined), the cell count was 1600 cells.
Work on CCOC(=O)c1c(C)[nH]c(N=Nc2ccccc2Cl)c1C yielded a cell count of 1590 cells.
For CCOc1ccccc1NC(=O)CC1Nc2cc(C)c(C)cc2NC1=O (centres undefined), the cell count was 1570 cells.
CCN1C(=O)c2ccccc2Sc2ccc(C(=O)NCCC(C)C)cc21 gave a cell count of 1650 cells.
With CCCCOc1ccc(NC(=O)Cn2c(=O)ccc3c(C)cc(C)nc32)cc1 the cell count was 1670 cells.
COc1cccc(NC(=O)CCC(=O)Nc2cc(OC)c(NC(=O)c3cccs3)cc2OC)c1 gave a cell count of 1580 cells.
Compound COc1cc(NC(=O)c2ccco2)c(OC)cc1NC(=O)CCC(=O)Nc1cc(C)cc(C)c1 has a cell count of 1550 cells.
In the case of CN(C(=O)CSc1cc(C(=O)c2nccn2C)c2ccccc2n1)c1ccccc1, the cell count is reported as 1570 cells.
Work on CCn1cc(C(=O)NCCCN(CC(C)C)CC(C)C)c(=O)c2cc(S(=O)(=O)N(C)C3CCCCC3)ccc21 yielded a cell count of 1570 cells.
In the case of CCCCn1c(O)c(/C=C/C=C/C=Nc2ccccc2)sc1=S, the cell count is reported as 1570 cells.
With O=C(Cn1nc(-c2cccc(Cl)c2)ccc1=O)Nc1ccc(C(=O)NC2CC2)cc1 the cell count was 1640 cells.
In the case of CCOc1ccc(CN(C)C(=O)NNC(=O)c2ccc(C)cc2)cc1OC, the cell count is reported as 1680 cells.
COc1cccc(CNC(=O)C2CCCN(S(=O)(=O)c3c(C)noc3/C=C/N(C)C)C2)c1 (centres undefined) gave a cell count of 1550 cells.
For N#CC(c1ccc(Cl)cc1)c1ccc2c(C(F)(F)F)cc(C(F)(F)F)nc2n1 (centres undefined), the cell count was 934 cells.
In the case of COc1ccc(C(=O)CCC(=O)Nc2ccc(N3CCCCC3)cc2)cc1OC, the cell count is reported as 1630 cells.
Cc1c(Cl)cccc1N(CC(=O)NC(C)c1ccccc1)S(C)(=O)=O (centres undefined) gave a cell count of 1640 cells.
For Cc1cccc(NC(=O)c2nc[nH]c2C(=O)NCC(=O)OC(C)(C)C)c1, the cell count was 1520 cells.
